Measurements reported in PubChem BioAssay AID1259254 (NCATS, 2017).
Shown is a random part of about 59,000 deposited reagents. About 1,550 of all reagents (2.6%) count as active. 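G2 share is only a proxy for re-replication; each gene was hit by three separate siRNAs, and active genes were retested.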 Entries without a mark were called inactive. The numbers tell different reagents against one gene apart. Further read-outs or replicates are left out here. The record does not give: the amount of reagent.

Screen: 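Genome-wide screen for genes that prevent DNA re-replication in cancer cells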 (primary screen)
Cells: human HCT116 colorectal cancer cells
Reagent: single siRNA against human genes
Duration: 3 days
Measured: 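Imaged Hoechst DNA stain sorts each cell into a cycle phase by DNA amount; per plate, G2 fraction set to 0% for non-targeting and 100% for GMNN siRNA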
Scale: G2 robust z-score: higher = more G2 cells, more excess DNA replication
Call rule: 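Active siRNAs have a G2 robust z of 5 or more median absolute deviations over the median, which in these data means about 38% or higher of GMNN control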

G2 robust z-score, by gene and reagent
MRPL35: #1 -1.01; #2 -0.922; #3 6.9 (active)
ZBTB40: #1 0.11; #2 -1.25; #3 0.554
C22orf46P: #1 -1.57; #2 1.21; #3 1.24
H1-8: #1 0.629; #2 0.93; #3 -0.289
IFT122: #1 -1; #2 -0.265; #3 -0.906
SFRP5: #1 2.72; #2 0.0828; #3 3.2
NIT1: #1 -0.643; #2 2.03; #3 1.15
OSBPL9: #1 2.14; #2 -0.569; #3 -0.167
LOC729562 (retired record): #1 0.0173; #2 1.9; #3 -0.781
TMTC2: #1 -0.825; #2 2.13; #3 0.874
CHPF2: #1 -0.899; #2 -0.388; #3 0.81
FN3KRP: #1 -0.831; #2 -0.845; #3 -0.691
CIPC: #1 0.348; #2 0.637; #3 -0.721
SLC35D4: #1 -0.917; #2 0.66; #3 0.265
COL15A1: #1 0.158; #2 -0.249; #3 1.23
OTX1: #1 2.19; #2 -0.308; #3 -0.0129
CGA: #1 1.43; #2 -0.631; #3 -0.0703
ZNF593: #1 0.981; #2 4.2; #3 -0.639
XKR5: #1 -0.855; #2 0.106; #3 -0.849
PRELP: #1 1.41; #2 -0.188; #3 1.25
SPRED1: #1 -0.316; #2 -0.806; #3 -0.997
BRS3: #1 1.19; #2 -0.262; #3 4.74
ZC3H12C: #1 1.09; #2 2.64; #3 -0.179

Laid out differently: entries from further up.
Gene | reagent no. | G2 robust z-score
H1-8 | 3 | -0.289
IFT122 | 1 | -1
IFT122 | 2 | -0.265
IFT122 | 3 | -0.906
SFRP5 | 1 | 2.72
